Results reported in US11059842B2, “Monosaccharide amine and 3-nitro-2-phenyl-2H-chromene based inhibitors of glucose kinases” (UNIVERSITY OF SOUTH CAROLINA, priority 2019, dated 2021).
At least one structure is not confirmed: it was looked up by name or label, or the drawing left a doubt.

Amino acid sequences for entries named in this document (tags omitted). Residues count along the entry.
UniProt Q4E4E1, 1-376: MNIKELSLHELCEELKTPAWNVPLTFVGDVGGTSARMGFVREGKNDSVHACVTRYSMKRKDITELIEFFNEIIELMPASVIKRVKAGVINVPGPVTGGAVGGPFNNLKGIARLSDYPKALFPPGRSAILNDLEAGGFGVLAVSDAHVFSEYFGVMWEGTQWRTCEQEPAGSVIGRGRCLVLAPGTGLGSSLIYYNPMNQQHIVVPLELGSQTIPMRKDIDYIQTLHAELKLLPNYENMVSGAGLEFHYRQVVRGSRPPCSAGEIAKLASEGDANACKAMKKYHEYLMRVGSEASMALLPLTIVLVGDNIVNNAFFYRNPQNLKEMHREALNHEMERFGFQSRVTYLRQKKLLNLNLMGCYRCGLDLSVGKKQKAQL

Assays:
[1] = system: Leishmania braziliensis glucokinase (LbGlcK); assay: Primary assay screen of LbGlcK, normalized percent inhibition (Example 2); assay type: biochemical; conditions: triplicate
Procedure: Primary assay screens of TcGlcK, LbGlcK, and HsHxKIV against the 3-nitro-2-phenyl-2H-chromene-based inhibitors compound nos. 19-22 were carried out. Compound 1, Benzoyl glucosamine (BENZ-GlcN or simply “BENZ”) and carboxybenzyl glucosamine (CBZ-GlcN or simply “CBZ”) were both used as controls due to their known inhibition against TcGlcK. LbGlcK was chosen to be tested against these compounds due to its 44% protein sequence similarity to TcGlcK.
All screens were done in triplicate and were analyzed using normalized percent inhibition (NPI) calculations. NPI calculations rely on positive and negative assay controls within the screen to account for any fluctuations in the fluorescence measurements.
The NPI for a compound to be considered a “hit” against TcGlcK required a value exceeding 60.5% inhibition in the primary screen. All four compounds ([…]) qualified as hits based off of this parameter. LbGlcK required compounds to be above 12.6% inhibition in its primary screen; all four compounds were also qualified as hits.

[2] = system: T. cruzi (Tulahuen strain) infective form (trypomastigote and amastigote life stages) co-cultured in NIH-3T3 fibroblasts; conditions: literature / previously measured values; infective form in NIH-3T3 fibroblasts; cited from earlier work
[3] = molecular target: Trypanosoma cruzi glucokinase (TcGlcK) (Trypanosoma cruzi (strain CL Brener), UniProt Q4E4E1); assay type: biochemical; conditions: higher values indicate more selective towards TcGlcK
Procedure: D-Glucose was also tested as a control with alternative substrates. The protein expression work for TcGlcK and HsHxKIV were each made possible through the E. coli strain BL21(DE3) system. Purification of each enzyme was performed through cobalt-NTA chromatography followed by size-exclusion chromatography; assessment of purity was performed by SDS-PAGE. […] A general reaction scheme included a first reaction in which the monosaccharide, ATP, and Mg^2+ react with the enzyme, e.g., TcGlcK, forming a hexose-phosphate and ADP. In a second reaction, hexose-phosphate with the assistance of glucose-6-phosphate dehydrogenase (G6PDH) and NADP^+ was converted to the lactone form of the hexose-phosphate and NADPH. Fluorescence of NADPH was monitored using a fluorescence microplate reader with […] wavelengths of 340 nm and 485 nm, respectively.
Michaelis-Menten constant (KM) values, which were used as the set final assay concentrations of substrates D-glucose and ATP for the primary screens, were determined for both TcGlcK and HsHxKIV in triplicate runs. […]
The cutoff percentage was calculated by using normalized percent inhibition that took into consideration the positive and negative controls of the fluorescence readout from a fluorescence microplate reader. […]

SMILES | NPI (%) LbGlcK [1] [%] | IC50 [2] [µM] | TcGlcK Inh20:HsHxKIV Inh20 ratio [3]
O=[N+]([O-])C1=Cc2cc(Br)ccc2O[C@H]1c1ccccc1Cl [Compound 20] | 21.7 |  | 
O=[N+]([O-])C1=Cc2cc(Br)cc(Br)c2O[C@H]1c1c(Cl)cccc1Cl [Compound 19] | 25.4 |  | 
O=[N+]([O-])C1=Cc2ccccc2O[C@H]1c1ccccc1Cl [Compound 21] | 15.7 |  | 
O=[N+]([O-])C1=Cc2ccccc2O[C@H]1c1c(Cl)cccc1Cl [Compound 22] | 23.7 |  | 
O=C(NC1C(O)OC(CO)C(O)C1O)OCc1ccccc1 (stereo not shown) [CBZ-GlcN, carboxybenzyl glucosamine, reference compound] | 27.0 | 48.7 ± 0.69 | 45.9
